Data published in the supplement of paper PMC12823440, “Inhibitors supercharge kinase turnover through native proteolytic circuits” (Nature, 2025).
The list shows a part of the results. The calls rarely recur for the same compound in another form.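 Kinases were expressed as nanoluciferase fusions in K562 cells and luminescence was read every 4 h between 2 and 18 h as percent of control, DMSO set to 100% and a positive control to 0%. A time point counts as decreased when the signal drops significantly (2 sigma). The hit call is the authors' own, does not follow from the count of time points alone, and its rule is not shown.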

By UniProt entry, the sequences of proteins in these tests, tags left out. Where a name states a change or a piece, a line headed by the entry shows the natural chain unless it says otherwise.
UniProt Q9UQM7, whole entry: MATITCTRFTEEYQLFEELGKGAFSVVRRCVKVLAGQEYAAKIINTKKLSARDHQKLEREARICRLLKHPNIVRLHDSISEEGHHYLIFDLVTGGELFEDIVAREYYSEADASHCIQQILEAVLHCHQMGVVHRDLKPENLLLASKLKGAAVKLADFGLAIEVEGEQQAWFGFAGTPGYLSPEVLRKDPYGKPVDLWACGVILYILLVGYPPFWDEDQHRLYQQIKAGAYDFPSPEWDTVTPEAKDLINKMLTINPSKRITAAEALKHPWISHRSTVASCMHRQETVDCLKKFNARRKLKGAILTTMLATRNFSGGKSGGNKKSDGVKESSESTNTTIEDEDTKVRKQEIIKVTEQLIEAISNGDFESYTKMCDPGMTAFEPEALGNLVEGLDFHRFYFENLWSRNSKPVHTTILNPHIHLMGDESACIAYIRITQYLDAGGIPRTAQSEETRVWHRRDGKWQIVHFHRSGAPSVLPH
UniProt Q13555: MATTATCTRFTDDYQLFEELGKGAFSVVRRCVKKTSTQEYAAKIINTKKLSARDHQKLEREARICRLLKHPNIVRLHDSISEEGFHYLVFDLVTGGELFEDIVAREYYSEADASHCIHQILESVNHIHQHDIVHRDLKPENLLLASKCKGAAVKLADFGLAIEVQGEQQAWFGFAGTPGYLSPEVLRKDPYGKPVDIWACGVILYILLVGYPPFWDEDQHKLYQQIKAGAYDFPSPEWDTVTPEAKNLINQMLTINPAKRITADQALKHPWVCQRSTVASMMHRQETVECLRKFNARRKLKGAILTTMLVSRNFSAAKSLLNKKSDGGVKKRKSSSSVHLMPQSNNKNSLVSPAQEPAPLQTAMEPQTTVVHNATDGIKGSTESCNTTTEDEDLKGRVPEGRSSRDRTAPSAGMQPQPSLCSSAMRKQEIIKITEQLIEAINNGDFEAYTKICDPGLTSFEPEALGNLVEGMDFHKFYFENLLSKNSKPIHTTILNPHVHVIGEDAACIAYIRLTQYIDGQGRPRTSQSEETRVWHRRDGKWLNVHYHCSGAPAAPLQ
UniProt Q15131: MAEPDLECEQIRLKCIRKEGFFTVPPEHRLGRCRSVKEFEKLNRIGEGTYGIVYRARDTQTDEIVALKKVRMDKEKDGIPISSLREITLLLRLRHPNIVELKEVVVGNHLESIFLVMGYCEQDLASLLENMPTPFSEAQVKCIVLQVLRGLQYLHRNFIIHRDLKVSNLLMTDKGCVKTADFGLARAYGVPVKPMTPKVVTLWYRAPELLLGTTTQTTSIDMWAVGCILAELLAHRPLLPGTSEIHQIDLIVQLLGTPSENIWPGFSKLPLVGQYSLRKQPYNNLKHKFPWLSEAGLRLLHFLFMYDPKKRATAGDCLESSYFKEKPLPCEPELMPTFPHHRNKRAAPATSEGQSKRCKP
UniProt Q00526: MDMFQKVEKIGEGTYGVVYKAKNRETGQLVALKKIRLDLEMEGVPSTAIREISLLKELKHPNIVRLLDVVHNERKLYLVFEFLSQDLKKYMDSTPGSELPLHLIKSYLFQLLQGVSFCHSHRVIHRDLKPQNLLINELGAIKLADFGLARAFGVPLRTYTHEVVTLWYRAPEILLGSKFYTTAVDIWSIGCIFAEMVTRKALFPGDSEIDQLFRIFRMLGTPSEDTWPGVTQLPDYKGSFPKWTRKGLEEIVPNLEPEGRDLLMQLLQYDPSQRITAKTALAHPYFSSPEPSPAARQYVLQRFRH
UniProt Q00535, whole entry, looked up: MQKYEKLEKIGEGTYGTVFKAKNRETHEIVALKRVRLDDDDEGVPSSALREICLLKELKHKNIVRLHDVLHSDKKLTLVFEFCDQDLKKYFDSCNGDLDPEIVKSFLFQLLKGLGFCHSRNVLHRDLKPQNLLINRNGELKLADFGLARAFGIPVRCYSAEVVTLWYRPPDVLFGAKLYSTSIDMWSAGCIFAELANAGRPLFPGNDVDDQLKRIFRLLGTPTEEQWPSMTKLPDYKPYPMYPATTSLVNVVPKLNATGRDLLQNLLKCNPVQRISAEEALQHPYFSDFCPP
UniProt Q00534, whole entry: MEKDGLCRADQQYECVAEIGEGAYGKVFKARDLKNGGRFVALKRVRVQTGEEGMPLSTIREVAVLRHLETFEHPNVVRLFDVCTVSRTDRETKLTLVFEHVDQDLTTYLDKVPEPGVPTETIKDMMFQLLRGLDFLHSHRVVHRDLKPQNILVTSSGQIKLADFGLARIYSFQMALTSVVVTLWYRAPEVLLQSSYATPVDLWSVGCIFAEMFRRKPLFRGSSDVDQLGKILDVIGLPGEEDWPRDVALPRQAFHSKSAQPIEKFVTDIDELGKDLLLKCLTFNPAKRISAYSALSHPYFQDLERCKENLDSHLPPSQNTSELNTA
UniProt O96017, whole entry: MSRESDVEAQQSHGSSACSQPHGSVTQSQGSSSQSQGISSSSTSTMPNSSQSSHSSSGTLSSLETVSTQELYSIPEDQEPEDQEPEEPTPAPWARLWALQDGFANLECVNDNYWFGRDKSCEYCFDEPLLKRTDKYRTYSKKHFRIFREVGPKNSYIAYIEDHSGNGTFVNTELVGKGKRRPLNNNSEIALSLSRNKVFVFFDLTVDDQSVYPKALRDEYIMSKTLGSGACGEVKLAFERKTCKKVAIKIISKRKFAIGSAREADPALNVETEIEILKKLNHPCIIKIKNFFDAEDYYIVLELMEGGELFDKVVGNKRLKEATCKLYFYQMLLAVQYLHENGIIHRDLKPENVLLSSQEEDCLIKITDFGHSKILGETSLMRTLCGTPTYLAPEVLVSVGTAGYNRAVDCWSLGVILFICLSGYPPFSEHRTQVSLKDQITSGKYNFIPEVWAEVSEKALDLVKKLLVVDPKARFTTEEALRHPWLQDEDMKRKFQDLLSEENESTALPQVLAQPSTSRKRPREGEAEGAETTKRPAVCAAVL
UniProt P07333, whole entry: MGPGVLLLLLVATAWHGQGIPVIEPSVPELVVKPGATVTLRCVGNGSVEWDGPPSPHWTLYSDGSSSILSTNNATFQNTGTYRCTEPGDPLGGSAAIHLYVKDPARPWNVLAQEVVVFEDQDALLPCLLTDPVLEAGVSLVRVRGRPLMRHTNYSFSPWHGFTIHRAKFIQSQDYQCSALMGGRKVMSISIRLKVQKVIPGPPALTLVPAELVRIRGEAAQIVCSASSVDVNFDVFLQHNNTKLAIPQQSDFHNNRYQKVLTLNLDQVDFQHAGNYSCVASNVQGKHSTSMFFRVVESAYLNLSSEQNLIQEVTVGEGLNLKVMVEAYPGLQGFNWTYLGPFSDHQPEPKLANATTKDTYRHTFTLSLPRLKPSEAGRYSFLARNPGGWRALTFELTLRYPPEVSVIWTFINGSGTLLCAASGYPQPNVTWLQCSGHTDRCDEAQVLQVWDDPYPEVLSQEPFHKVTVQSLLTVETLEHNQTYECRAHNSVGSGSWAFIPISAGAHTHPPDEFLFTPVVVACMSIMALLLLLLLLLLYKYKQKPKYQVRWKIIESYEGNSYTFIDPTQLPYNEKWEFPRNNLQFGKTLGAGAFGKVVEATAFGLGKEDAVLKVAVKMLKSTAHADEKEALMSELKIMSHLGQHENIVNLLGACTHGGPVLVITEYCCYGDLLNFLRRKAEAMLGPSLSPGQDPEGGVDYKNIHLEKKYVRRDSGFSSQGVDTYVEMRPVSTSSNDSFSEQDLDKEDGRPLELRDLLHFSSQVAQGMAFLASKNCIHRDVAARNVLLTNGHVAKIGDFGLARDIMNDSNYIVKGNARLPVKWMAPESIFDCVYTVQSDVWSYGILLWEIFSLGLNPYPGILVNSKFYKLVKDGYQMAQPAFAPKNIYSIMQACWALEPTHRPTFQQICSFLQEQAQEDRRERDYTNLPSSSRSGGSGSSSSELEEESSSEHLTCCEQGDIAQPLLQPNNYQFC
UniProt P41240: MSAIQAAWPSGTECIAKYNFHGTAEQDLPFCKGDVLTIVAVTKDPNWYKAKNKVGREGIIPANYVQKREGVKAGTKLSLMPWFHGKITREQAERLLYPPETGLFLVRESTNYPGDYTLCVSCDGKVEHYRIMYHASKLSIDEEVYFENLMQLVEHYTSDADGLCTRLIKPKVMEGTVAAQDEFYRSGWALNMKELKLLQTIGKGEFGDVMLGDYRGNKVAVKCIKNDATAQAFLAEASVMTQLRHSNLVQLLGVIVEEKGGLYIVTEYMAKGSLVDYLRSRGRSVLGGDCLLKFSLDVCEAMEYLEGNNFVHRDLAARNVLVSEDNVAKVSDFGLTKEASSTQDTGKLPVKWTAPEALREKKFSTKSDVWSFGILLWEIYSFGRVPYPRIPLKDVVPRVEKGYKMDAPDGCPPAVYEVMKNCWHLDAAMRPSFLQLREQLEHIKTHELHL
UniProt P48729: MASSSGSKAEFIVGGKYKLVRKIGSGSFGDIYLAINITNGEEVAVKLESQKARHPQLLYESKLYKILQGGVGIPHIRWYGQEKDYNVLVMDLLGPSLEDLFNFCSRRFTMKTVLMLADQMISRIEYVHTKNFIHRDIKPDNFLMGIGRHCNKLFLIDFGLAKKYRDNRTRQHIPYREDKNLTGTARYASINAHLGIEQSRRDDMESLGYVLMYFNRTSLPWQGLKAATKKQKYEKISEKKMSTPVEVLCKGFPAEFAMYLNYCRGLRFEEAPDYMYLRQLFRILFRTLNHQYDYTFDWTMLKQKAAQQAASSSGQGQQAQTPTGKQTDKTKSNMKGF
UniProt P48730: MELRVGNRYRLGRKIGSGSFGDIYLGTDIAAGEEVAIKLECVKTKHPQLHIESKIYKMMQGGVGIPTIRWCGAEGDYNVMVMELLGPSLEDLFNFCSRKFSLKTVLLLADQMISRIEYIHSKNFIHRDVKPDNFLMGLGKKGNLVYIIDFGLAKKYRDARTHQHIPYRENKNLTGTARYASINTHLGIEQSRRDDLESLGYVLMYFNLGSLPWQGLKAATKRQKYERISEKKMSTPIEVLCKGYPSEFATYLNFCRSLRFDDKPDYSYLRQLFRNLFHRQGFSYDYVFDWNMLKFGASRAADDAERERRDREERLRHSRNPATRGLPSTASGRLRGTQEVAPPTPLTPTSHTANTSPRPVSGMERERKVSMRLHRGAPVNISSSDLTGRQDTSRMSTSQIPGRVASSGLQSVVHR
UniProt Q08345: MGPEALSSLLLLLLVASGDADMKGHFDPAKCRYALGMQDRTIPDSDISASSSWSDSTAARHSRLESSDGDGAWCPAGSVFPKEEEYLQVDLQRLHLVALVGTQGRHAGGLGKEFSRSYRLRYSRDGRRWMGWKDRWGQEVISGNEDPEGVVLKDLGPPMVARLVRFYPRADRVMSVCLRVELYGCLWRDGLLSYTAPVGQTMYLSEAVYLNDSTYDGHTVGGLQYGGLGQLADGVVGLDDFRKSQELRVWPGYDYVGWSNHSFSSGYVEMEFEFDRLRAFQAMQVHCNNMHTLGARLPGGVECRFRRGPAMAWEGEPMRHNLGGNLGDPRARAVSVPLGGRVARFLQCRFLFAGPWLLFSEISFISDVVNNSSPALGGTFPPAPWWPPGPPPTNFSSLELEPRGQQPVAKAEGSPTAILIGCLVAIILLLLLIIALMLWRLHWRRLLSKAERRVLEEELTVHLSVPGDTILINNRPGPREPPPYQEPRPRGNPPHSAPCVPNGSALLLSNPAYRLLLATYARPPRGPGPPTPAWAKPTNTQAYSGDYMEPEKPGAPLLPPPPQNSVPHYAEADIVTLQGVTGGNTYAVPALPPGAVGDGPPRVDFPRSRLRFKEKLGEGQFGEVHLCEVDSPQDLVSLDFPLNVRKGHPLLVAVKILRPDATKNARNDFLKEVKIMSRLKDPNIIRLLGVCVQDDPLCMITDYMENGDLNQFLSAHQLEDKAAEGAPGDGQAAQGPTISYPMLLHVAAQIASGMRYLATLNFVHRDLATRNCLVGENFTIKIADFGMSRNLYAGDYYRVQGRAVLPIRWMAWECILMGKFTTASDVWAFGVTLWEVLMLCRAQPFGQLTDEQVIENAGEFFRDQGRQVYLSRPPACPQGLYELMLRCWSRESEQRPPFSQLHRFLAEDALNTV
UniProt Q92630: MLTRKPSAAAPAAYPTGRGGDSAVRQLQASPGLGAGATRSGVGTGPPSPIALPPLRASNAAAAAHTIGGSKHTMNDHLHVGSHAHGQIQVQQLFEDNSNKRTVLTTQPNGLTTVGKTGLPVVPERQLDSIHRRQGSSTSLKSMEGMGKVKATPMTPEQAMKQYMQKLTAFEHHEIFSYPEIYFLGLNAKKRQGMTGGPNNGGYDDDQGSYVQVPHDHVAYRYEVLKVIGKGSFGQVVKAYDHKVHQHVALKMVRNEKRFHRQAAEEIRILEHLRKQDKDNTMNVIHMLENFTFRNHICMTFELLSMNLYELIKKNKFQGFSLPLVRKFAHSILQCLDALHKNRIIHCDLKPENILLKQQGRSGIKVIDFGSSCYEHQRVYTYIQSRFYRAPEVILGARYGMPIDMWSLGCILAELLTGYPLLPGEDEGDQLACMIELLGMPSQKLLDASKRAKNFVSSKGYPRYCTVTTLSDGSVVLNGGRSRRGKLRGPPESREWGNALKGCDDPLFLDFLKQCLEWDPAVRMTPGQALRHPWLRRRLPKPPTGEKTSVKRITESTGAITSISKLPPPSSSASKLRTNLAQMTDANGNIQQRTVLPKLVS

What was measured:
Assay in all cases: number of time points (of 5) at which kinase-Nluc abundance scored as decreased, DMSO-normalised (count); higher = more persistent destabilization
Conditions in all cases: K562; 2-18 h
[1] = target: CAMK2A (UniProt Q9UQM7)
[2] = target: CAMK2G (UniProt Q13555)
[3] = target: CDK10 (UniProt Q15131)
[4] = target: CDK2 (UniProt P24941)
[5] = target: CDK3 (UniProt Q00526)
[6] = target: CDK5 (UniProt Q00535)
[7] = target: CDK6 (UniProt Q00534)
[8] = target: CHEK2 (UniProt O96017)
[9] = target: CSF1R (UniProt P07333)
[10] = target: CSK (UniProt P41240)
[11] = target: CSNK1A1 (UniProt P48729)
[12] = target: CSNK1D (UniProt P48730)
[13] = target: DDR1 (UniProt Q08345)
[14] = target: DYRK1B (UniProt Q9Y463)
[15] = target: DYRK2 (UniProt Q92630)
[16] = target: EGFR (UniProt P00533)
[17] = target: EGFR_G719S (UniProt P00533)
[18] = target: EGFR_G719S_T790M (UniProt P00533)
[19] = target: EGFR_L718V (UniProt P00533)
[20] = target: EGFR_L858R (UniProt P00533)

Compound | number of time points [1] | number of time points [2] | number of time points [3] | number of time points [4] | number of time points [5] | number of time points [6] | number of time points [7] | number of time points [8] | number of time points [9] | number of time points [10] | number of time points [11] | number of time points [12] | number of time points [13] | number of time points [14] | number of time points [15] | number of time points [16] | number of time points [17] | number of time points [18] | number of time points [19] | number of time points [20]
CCc1c(C)sc(NC(=S)NC(=O)c2ccc(Cl)cc2)c1C(N)=O (10 µM) | 0 | 0 | 0 | 0 | 0 | 0 | 0 | 0 | 0 | 0 | 0 | 0 | 0 | 0 | 0 | 0 | 0 | 0 | 0 | 0
C=C[C@H]1[C@H](O[C@@H]2O[C@H](CO)[C@@H](O)[C@H](O)[C@H]2OC(=O)c2c(O)cc(O)cc2-c2cccc(O)c2)OC=C2C(=O)OCC[C@H]21 [Amarogentin] (10 µM) | 0 | 0 | 0 | 0 | 0 | 0 | 0 | 0 | 0 | 0 | 0 | 0 | 0 | 0 | 0 | 0 | 0 | 0 | 0 | 0
CC(C)(C)Cn1c(N)nc2ccc(-c3[nH]c(C(C)(C)C)nc3-c3ccc(F)cc3)nc21 [Ralimetinib dimesylate] (2.5 µM) | 0 | 0 | 0 | 0 | 0 | 0 | 0 | 0 | 0 | 0 | 0 | 0 | 0 | 0 | 0 | 0 | 0 | 0 | 0 | 0
O=C(O)c1ccccc1Nc1cccc(C(F)(F)F)c1 [Flufenamic acid] (10 µM) | 0 | 0 | 0 | 0 | 0 | 0 | 0 | 0 | 0 | 0 | 0 | 0 | 0 | 0 | 0 | 0 | 0 | 0 | 0 | 0
Nc1[nH]c(=O)nc2c1ncn2[C@@H]1O[C@H](CO)[C@@H](O)[C@H]1O [Crotonoside] (10 µM) | 0 | 0 | 0 | 0 | 0 | 0 | 0 | 0 | 0 | 0 | 0 | 0 | 0 | 0 | 0 | 0 | 0 | 0 | 0 | 0
Fc1c(Br)cccc1Nc1ncnc2cc3c(cc12)OCCO3 (2.5 µM) | 0 | 1 | 0 | 0 | 1 | 0 | 0 | 0 | 0 | 0 | 0 | 0 | 0 | 0 | 0 | 0 | 0 | 1 | 1 | 0
